Data: paper doi:10.1101/2021.08.31.458428
These are yes or no findings as the source states them, for the method shown. In cells and extracts the contact can be indirect. Here binding means that the protein was enriched with, or labelled near, the bait; the list need not be complete.

The chains behind the UniProt entries cited, without tags or fusion partners. Where a name states a change or a piece, a line headed by the entry shows the natural chain unless it says otherwise.
UniProt P34152: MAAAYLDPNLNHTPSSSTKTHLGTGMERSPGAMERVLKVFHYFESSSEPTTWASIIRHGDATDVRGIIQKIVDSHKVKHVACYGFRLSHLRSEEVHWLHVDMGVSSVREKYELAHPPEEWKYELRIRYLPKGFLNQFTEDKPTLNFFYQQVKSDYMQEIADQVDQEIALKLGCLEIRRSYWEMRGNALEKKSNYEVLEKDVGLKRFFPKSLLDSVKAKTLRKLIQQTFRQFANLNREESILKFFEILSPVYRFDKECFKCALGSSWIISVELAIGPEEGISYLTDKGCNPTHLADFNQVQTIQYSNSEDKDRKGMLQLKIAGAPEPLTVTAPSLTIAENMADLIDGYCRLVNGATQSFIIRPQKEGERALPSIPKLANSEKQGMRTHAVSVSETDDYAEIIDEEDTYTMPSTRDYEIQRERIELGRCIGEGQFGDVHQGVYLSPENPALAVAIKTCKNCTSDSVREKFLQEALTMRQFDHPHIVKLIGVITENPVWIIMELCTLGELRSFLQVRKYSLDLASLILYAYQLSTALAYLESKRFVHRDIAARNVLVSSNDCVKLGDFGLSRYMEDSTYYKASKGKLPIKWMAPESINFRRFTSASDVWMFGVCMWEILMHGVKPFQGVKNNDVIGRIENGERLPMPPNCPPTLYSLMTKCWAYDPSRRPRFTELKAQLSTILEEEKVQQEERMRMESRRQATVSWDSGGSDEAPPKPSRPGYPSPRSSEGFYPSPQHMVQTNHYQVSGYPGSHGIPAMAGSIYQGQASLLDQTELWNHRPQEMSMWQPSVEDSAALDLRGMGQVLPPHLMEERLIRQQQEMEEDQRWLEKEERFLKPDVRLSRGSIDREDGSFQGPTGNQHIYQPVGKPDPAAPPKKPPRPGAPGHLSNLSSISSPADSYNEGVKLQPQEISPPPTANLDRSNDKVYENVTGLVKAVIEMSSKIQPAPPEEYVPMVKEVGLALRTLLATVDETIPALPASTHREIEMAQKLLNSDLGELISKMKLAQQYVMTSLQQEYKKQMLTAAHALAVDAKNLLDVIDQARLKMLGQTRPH
UniProt Q62219: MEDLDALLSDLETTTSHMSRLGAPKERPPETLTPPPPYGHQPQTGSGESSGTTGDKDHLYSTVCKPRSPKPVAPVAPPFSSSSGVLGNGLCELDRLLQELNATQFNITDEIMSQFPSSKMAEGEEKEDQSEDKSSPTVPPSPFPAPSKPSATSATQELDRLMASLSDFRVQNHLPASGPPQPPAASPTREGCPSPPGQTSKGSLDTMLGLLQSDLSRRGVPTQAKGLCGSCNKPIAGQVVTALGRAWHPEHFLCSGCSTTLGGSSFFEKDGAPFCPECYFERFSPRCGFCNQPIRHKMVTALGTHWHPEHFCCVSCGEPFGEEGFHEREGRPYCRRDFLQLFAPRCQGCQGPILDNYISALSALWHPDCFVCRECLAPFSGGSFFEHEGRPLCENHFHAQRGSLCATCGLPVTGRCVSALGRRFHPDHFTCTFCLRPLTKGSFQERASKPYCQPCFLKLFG

Molecular target: FAK fused to the promiscuous mutated biotin ligase BirA* (FAK-BirA*) (UniProt P34152)
Assay: proximity labelling

binding: binds
Substance: Hic-5 (from UniProt Q62219 1-461)
